Consider 5 molecules from PMC11979000.

Amino acid sequences for entries named in this document (tags omitted).
UniProt Q9WTQ5: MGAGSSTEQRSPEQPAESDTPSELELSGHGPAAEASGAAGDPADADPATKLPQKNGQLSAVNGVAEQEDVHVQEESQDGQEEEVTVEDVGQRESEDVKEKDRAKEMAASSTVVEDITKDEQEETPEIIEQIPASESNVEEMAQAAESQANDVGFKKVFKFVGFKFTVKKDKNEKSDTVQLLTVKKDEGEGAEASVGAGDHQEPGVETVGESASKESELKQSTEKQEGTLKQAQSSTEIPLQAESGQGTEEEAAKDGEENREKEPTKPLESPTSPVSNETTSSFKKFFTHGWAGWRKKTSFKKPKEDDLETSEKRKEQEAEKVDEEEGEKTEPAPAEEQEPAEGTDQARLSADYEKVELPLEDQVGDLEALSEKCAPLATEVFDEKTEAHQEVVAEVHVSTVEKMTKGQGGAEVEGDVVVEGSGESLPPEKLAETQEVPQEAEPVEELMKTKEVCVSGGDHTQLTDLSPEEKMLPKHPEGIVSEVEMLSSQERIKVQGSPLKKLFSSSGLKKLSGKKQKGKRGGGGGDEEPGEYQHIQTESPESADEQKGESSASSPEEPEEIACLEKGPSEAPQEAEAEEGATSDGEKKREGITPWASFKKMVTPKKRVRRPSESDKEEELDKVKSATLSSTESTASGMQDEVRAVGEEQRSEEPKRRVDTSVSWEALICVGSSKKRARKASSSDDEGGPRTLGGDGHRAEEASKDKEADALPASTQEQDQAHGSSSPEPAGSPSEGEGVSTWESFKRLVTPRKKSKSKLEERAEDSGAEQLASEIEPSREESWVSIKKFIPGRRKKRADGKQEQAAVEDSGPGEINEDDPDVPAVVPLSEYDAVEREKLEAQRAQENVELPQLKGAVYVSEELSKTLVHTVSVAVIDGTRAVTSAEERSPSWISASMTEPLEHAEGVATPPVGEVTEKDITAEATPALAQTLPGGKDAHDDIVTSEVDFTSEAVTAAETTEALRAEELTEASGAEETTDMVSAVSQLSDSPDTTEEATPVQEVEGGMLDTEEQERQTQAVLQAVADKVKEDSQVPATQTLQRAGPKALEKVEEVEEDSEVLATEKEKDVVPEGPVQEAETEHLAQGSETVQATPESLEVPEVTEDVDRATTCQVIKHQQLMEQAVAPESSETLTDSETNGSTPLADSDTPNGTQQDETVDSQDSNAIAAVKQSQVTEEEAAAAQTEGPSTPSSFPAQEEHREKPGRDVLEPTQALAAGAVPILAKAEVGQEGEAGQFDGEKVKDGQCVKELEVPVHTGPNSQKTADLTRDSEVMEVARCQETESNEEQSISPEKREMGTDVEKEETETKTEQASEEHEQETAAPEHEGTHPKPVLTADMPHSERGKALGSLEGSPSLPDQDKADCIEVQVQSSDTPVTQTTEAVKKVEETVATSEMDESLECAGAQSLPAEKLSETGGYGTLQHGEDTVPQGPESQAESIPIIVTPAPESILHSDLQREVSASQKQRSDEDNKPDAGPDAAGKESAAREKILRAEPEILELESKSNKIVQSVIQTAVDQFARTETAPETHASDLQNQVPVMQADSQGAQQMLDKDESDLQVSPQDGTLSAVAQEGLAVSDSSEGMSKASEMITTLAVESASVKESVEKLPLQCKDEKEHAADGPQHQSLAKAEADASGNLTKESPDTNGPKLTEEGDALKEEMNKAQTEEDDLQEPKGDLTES
UniProt Q9DBC7: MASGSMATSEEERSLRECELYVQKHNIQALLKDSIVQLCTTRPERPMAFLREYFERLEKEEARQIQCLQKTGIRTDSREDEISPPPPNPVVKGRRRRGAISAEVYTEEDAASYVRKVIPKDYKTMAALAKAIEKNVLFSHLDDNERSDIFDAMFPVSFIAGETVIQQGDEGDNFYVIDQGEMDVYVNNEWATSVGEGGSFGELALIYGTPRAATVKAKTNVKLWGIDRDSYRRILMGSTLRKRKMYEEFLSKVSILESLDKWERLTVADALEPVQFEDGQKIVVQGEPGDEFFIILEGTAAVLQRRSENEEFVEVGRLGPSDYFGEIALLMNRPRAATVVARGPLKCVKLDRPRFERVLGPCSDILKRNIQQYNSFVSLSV
UniProt P18762: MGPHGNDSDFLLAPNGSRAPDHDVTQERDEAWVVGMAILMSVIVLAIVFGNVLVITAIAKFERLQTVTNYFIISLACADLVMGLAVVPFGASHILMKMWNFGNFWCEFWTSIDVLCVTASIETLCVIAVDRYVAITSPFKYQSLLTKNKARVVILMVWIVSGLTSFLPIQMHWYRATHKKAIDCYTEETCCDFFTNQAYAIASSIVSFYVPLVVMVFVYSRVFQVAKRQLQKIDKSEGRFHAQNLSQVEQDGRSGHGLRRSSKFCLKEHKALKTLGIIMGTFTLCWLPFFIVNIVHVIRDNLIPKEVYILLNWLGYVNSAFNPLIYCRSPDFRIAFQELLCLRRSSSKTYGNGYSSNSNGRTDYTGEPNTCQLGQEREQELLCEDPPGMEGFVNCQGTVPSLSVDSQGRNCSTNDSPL
UniProt P12367: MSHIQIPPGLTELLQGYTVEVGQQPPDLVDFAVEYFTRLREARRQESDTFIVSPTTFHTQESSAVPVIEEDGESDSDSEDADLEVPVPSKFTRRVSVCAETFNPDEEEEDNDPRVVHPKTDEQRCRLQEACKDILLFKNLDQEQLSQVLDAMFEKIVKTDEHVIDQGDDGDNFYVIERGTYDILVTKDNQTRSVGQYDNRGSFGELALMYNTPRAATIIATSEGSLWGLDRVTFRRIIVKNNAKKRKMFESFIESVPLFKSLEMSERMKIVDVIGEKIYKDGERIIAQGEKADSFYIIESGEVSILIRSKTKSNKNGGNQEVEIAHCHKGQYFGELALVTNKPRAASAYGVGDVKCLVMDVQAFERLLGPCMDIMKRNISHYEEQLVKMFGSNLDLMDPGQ

The labels stand for the following.
B1: Patatin-like phospholipase domain-containing protein 2, mouse (enzyme, UniProt Q8BJ56 1-486)
chain: MFPRETKWNISFAGCGFLGVYHIGVASCLREHAPFLVANATHIYGASAGALTATALVTGACLGEAGANIIEVSKEARKRFLGPLHPSFNLVKTIRGCLLKTLPADCHERANGRLGISLTRVSDGENVIISHFSSKDELIQANVCSTFIPVYCGLIPPTLQGVRYVDGGISDNLPLYELKNTITVSPFSGESDICPQDSSTNIHELRVTNTSIQFNLRNLYRLSKALFPPEPMVLREMCKQGYRDGLRFLRRNGLLNQPNPLLALPPVVPQEEDAEEAAVVEERAGEEDQLQPYRKDRILEHLPARLNEALLEACVEPKDLMTTLSNMLPVRLATAMMVPYTLPLESAVSFTIRLLEWLPDVPEDIRWMKEQTGSICQYLVMRAKRKLGDHLPSRLSEQVELRRAQSLPSVPLSCATYSEALPNWVRNNLSLGDALAKWEECQRQLLLGLFCTNVAFPPDALRMRAPASPTAADPATPQDPPGLPPC

Results are given in words; binding and its absence hold for the method and conditions named. Binding seen in cells or lysates may run through a third protein. These calls come from enrichment with a bait or labelling near it, and not all partners need be listed.

This assay concerns the target A-kinase anchoring protein 12 (AKAP12), mouse (mouse (endogenous in mouse hepatocytes and liver)) (UniProt Q9WTQ5). The assay is described as follows: affinity purification with mass spectrometry; AKAP12 antibody crosslinked to protein A/G beads; immunoprecipitation from hepatocytes isolated from pair-fed (control) or alcohol-fed mouse liver; nano LC-MS/MS label-free quantification.
For the molecule “Dual specificity mitogen-activated protein kinase kinase 2, mouse (from UniProt Q63932 1-401) (enzyme)”, the binding result is listed as “binds”.

Take “Protein kinase type I-alpha regulatory subunit, mouse (from UniProt Q9DBC7 1-381)”: the binding result is “binds”.

Regarding “Beta-2 adrenergic receptor, mouse (from UniProt P18762 1-418)”, the binding result was “binds”.

For the molecule “Protein kinase type II-alpha (PKA regulatory subunit RII-alpha), mouse (from UniProt P12367 1-401)”, the binding entry is “binds”.

Take B1: the binding entry was “binds”.
